For one assay, the target named is T1, TLR7-myc (UniProt P58681).
T1 sequence: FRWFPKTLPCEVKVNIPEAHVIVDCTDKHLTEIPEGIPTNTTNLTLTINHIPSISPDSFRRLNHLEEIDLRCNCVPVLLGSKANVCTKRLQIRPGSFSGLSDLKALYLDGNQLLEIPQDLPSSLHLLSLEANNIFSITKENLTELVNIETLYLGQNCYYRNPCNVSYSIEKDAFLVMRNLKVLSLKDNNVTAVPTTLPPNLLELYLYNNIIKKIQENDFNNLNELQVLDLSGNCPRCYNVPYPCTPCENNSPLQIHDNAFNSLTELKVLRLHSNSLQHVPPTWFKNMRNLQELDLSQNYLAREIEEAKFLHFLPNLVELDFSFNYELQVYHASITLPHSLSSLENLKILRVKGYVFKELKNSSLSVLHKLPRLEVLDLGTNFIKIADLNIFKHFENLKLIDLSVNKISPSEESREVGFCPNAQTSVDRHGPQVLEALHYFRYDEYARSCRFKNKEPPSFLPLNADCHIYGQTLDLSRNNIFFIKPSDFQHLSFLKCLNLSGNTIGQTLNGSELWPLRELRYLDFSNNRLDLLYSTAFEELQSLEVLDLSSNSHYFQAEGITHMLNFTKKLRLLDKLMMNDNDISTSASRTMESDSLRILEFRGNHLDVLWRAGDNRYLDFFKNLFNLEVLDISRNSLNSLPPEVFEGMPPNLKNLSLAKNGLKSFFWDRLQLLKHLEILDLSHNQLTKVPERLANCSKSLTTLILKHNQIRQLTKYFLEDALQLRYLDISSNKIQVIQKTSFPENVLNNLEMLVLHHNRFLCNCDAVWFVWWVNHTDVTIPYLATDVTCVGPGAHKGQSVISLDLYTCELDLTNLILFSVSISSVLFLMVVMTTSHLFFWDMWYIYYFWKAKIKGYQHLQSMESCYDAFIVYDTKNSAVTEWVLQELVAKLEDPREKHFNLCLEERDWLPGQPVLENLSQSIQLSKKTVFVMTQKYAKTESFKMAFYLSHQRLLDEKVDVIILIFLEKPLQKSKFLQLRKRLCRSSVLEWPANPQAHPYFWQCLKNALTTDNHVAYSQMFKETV
As to the kind of experiment: co-IP; HEK293T cells co-expressing UNC93B1-HA (wild type or mutant) and TLR9-myc or TLR7-myc; lysis in 50 mM Tris-HCl pH 7.5, 150 mM NaCl, 5 mM EDTA, 1% digitonin; TLR precipitated with anti-myc (9B11) and Protein A agarose at 4 °C; UNC93B1 detected with anti-HA.

Assay [1] has as its target T2, TLR9-myc (in HEK293T cells) (UniProt Q9EQU3).
T2 sequence: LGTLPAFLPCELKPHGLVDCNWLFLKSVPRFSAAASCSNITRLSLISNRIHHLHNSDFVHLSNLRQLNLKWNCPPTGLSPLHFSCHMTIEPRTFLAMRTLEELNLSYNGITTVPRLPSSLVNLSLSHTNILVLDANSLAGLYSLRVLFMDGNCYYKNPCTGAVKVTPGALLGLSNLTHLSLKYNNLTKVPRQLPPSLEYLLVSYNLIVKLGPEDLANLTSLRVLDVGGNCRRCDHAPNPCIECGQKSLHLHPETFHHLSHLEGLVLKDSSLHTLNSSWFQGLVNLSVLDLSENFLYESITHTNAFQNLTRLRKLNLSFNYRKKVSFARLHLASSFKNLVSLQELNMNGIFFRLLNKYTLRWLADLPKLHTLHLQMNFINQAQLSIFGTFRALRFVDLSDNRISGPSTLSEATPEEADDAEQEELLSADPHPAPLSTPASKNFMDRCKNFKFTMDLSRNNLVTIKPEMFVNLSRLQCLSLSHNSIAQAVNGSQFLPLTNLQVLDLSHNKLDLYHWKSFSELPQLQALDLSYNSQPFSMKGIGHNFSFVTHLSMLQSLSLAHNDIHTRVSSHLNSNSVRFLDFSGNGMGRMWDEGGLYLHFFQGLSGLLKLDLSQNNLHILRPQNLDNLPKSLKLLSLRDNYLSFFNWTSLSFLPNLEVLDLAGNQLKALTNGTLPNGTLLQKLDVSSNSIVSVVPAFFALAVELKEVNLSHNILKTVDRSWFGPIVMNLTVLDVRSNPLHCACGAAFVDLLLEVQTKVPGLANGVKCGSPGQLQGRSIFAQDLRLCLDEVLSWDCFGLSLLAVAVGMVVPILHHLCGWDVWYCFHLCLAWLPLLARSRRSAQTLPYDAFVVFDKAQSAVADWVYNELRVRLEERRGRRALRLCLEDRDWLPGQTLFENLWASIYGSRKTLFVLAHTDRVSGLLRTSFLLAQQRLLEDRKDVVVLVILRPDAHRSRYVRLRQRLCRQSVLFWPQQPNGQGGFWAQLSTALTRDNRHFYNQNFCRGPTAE
The assay is described as above.

The target of assay [2] is T3, TLR9-myc (in UNC93B1 KO iBMDMs) (UniProt Q9EQU3).
T3 sequence: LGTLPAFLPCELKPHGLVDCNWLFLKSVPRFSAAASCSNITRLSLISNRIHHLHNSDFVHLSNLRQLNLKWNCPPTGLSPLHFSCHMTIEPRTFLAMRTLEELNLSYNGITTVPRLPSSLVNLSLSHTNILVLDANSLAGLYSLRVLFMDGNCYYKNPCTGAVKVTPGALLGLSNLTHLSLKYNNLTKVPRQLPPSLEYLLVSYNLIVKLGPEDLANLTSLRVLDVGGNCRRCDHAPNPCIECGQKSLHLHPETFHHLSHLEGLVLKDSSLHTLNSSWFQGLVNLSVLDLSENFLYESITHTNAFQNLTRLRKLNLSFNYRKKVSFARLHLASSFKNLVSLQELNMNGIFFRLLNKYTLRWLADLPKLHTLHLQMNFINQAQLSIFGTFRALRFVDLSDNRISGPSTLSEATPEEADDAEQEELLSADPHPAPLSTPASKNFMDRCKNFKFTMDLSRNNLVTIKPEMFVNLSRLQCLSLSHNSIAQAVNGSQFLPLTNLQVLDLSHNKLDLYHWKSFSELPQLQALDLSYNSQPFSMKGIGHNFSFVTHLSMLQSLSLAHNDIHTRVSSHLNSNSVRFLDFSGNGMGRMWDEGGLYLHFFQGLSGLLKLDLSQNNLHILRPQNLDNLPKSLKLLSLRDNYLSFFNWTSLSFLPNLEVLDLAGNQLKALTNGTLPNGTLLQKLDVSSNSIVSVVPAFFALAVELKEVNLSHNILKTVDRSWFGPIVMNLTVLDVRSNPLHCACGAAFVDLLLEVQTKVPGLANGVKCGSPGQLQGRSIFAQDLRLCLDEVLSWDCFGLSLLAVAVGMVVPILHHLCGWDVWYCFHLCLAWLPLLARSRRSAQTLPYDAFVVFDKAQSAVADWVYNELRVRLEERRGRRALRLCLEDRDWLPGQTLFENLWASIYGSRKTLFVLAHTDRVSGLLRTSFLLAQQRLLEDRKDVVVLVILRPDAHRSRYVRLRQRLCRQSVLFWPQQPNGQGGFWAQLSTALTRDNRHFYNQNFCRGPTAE
The experiment in a line: co-IP; phagosomes (magnetic beads, 4 h) isolated from UNC93B1 KO iBMDMs expressing TLR9-myc and UNC93B1-GFP (wild type or mutant); phagosomes lysed in 1% Triton X-100 buffer; TLR9 precipitated with anti-myc; UNC93B1 detected with anti-GFP.

Our source for the binding values is article PMC9301129.

Results are given in words; binding and its absence hold for the method and conditions named. Binding seen in cells or lysates may run through a third protein. Some results given as binding are weak or reduced against the parent protein; the word gives no strength. Sequences can lack the tags named with a protein.

B1: UNC93B1-flag-TEV-HA, wild type (protein, UniProt Q8VCW4 1-598)
chain: MEVEPPLYPVAGAAGPQGDEDRHGVPDGPEAPLDELVGAYPNYNEEEEERRYYRRKRLGVVKNVLAASTGVTLTYGVYLGLLQMQLILHYDETYREVKYGNMGLPDIDSKMLMGINVTPIAALLYTPVLIRFFGTKWMMFLAVGIYALFVSTNYWERYYTLVPSAVALGMAIVPLWASMGNYITRMSQKYYEYSHYKEQDEQGPQQRPPRGSHAPYLLVFQAIFYSFFHLSFACAQLPMIYFLNNYLYDLNHTLINVQSCGTKSQGILNGFNKTVLRTLPRSKNLIVVESVLMAVAFLAMLMVLGLCGAAYRPTEEIDLRSVGWGNIFQLPFKHVRDFRLRHLVPFFIYSGFEVLFACTGFALGYGVCSMGLERLAYLLIAYSLGASASSVLGLLGLWLPRSVPLVAGAGLHLLLTLSLFFWAPAPRVLQHSWIFYFVAALWGVGSALNKTGLSTLLGILYEDKERQDFIFTIYHWWQAVAIFVVYLGSSLPMKAKLAVLLVTLVAAAASYLWMEQKLQQGLVPRQPRIPKPQHKVRGYRYLEEDNSDESDMEGEQGQGDCAEDEAPQAGPLGAEPAGPCRKPCPYEQALGGDGPEEQ
modifications: N-glycosylated at N251 and N272
B1: the binding entry (in the assay with TLR7-myc; in assay [1]) was “binds” each time.

B2: UNC93B1-GFP, wild type (protein, UniProt Q8VCW4 1-598)
chain: MEVEPPLYPVAGAAGPQGDEDRHGVPDGPEAPLDELVGAYPNYNEEEEERRYYRRKRLGVVKNVLAASTGVTLTYGVYLGLLQMQLILHYDETYREVKYGNMGLPDIDSKMLMGINVTPIAALLYTPVLIRFFGTKWMMFLAVGIYALFVSTNYWERYYTLVPSAVALGMAIVPLWASMGNYITRMSQKYYEYSHYKEQDEQGPQQRPPRGSHAPYLLVFQAIFYSFFHLSFACAQLPMIYFLNNYLYDLNHTLINVQSCGTKSQGILNGFNKTVLRTLPRSKNLIVVESVLMAVAFLAMLMVLGLCGAAYRPTEEIDLRSVGWGNIFQLPFKHVRDFRLRHLVPFFIYSGFEVLFACTGFALGYGVCSMGLERLAYLLIAYSLGASASSVLGLLGLWLPRSVPLVAGAGLHLLLTLSLFFWAPAPRVLQHSWIFYFVAALWGVGSALNKTGLSTLLGILYEDKERQDFIFTIYHWWQAVAIFVVYLGSSLPMKAKLAVLLVTLVAAAASYLWMEQKLQQGLVPRQPRIPKPQHKVRGYRYLEEDNSDESDMEGEQGQGDCAEDEAPQAGPLGAEPAGPCRKPCPYEQALGGDGPEEQ
modifications: N-glycosylated at N251 and N272
As for B2, the binding entry in assay [2] is reported as “binds”.

B3: UNC93B1(N251Q)-flag-TEV-HA (protein, UniProt Q8VCW4 1-598)
chain: MEVEPPLYPVAGAAGPQGDEDRHGVPDGPEAPLDELVGAYPNYNEEEEERRYYRRKRLGVVKNVLAASTGVTLTYGVYLGLLQMQLILHYDETYREVKYGNMGLPDIDSKMLMGINVTPIAALLYTPVLIRFFGTKWMMFLAVGIYALFVSTNYWERYYTLVPSAVALGMAIVPLWASMGNYITRMSQKYYEYSHYKEQDEQGPQQRPPRGSHAPYLLVFQAIFYSFFHLSFACAQLPMIYFLNNYLYDLQHTLINVQSCGTKSQGILNGFNKTVLRTLPRSKNLIVVESVLMAVAFLAMLMVLGLCGAAYRPTEEIDLRSVGWGNIFQLPFKHVRDFRLRHLVPFFIYSGFEVLFACTGFALGYGVCSMGLERLAYLLIAYSLGASASSVLGLLGLWLPRSVPLVAGAGLHLLLTLSLFFWAPAPRVLQHSWIFYFVAALWGVGSALNKTGLSTLLGILYEDKERQDFIFTIYHWWQAVAIFVVYLGSSLPMKAKLAVLLVTLVAAAASYLWMEQKLQQGLVPRQPRIPKPQHKVRGYRYLEEDNSDESDMEGEQGQGDCAEDEAPQAGPLGAEPAGPCRKPCPYEQALGGDGPEEQ
modifications: N-glycosylated at N272
B3: the binding result (with TLR7-myc; in assay [1]) was “binds” in each case.

B4: UNC93B1(N272Q)-flag-TEV-HA (protein, UniProt Q8VCW4 1-598)
chain: MEVEPPLYPVAGAAGPQGDEDRHGVPDGPEAPLDELVGAYPNYNEEEEERRYYRRKRLGVVKNVLAASTGVTLTYGVYLGLLQMQLILHYDETYREVKYGNMGLPDIDSKMLMGINVTPIAALLYTPVLIRFFGTKWMMFLAVGIYALFVSTNYWERYYTLVPSAVALGMAIVPLWASMGNYITRMSQKYYEYSHYKEQDEQGPQQRPPRGSHAPYLLVFQAIFYSFFHLSFACAQLPMIYFLNNYLYDLNHTLINVQSCGTKSQGILNGFQKTVLRTLPRSKNLIVVESVLMAVAFLAMLMVLGLCGAAYRPTEEIDLRSVGWGNIFQLPFKHVRDFRLRHLVPFFIYSGFEVLFACTGFALGYGVCSMGLERLAYLLIAYSLGASASSVLGLLGLWLPRSVPLVAGAGLHLLLTLSLFFWAPAPRVLQHSWIFYFVAALWGVGSALNKTGLSTLLGILYEDKERQDFIFTIYHWWQAVAIFVVYLGSSLPMKAKLAVLLVTLVAAAASYLWMEQKLQQGLVPRQPRIPKPQHKVRGYRYLEEDNSDESDMEGEQGQGDCAEDEAPQAGPLGAEPAGPCRKPCPYEQALGGDGPEEQ
modifications: N-glycosylated at N251
Take B4: the binding result (in the assay with TLR7-myc; in assay [1]) was “binds” each time.

B5: UNC93B1(N272Q)-GFP (protein, UniProt Q8VCW4 1-598)
chain: MEVEPPLYPVAGAAGPQGDEDRHGVPDGPEAPLDELVGAYPNYNEEEEERRYYRRKRLGVVKNVLAASTGVTLTYGVYLGLLQMQLILHYDETYREVKYGNMGLPDIDSKMLMGINVTPIAALLYTPVLIRFFGTKWMMFLAVGIYALFVSTNYWERYYTLVPSAVALGMAIVPLWASMGNYITRMSQKYYEYSHYKEQDEQGPQQRPPRGSHAPYLLVFQAIFYSFFHLSFACAQLPMIYFLNNYLYDLNHTLINVQSCGTKSQGILNGFQKTVLRTLPRSKNLIVVESVLMAVAFLAMLMVLGLCGAAYRPTEEIDLRSVGWGNIFQLPFKHVRDFRLRHLVPFFIYSGFEVLFACTGFALGYGVCSMGLERLAYLLIAYSLGASASSVLGLLGLWLPRSVPLVAGAGLHLLLTLSLFFWAPAPRVLQHSWIFYFVAALWGVGSALNKTGLSTLLGILYEDKERQDFIFTIYHWWQAVAIFVVYLGSSLPMKAKLAVLLVTLVAAAASYLWMEQKLQQGLVPRQPRIPKPQHKVRGYRYLEEDNSDESDMEGEQGQGDCAEDEAPQAGPLGAEPAGPCRKPCPYEQALGGDGPEEQ
modifications: N-glycosylated at N251
For B5, in assay [2], the binding result was “binds”.
